± gives the standard deviation of the averaged measurements. Differences between knockout arms are mostly noise.
Test system: BT-20
Experiment: relative cell number vs DMSO control (72 h) (% of DMSO); higher = less growth inhibition (more cells)
Protocol: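 QMAP-Seq: a pool of 5 breast cancer cell lines (ZR-75-1, SKBR3, HCC-38, MDA-MB-231, BT-20), each carrying 12 doxycycline-inducible Cas9 sgRNA perturbations (11 knockouts plus non-targeting sgNT), was treated with compounds for 72 h at four 10-fold doses (10 nM-10 uM or 1 nM-1 uM range). Barcodes were amplified and sequenced, and cell number was interpolated from 293T spike-in standard curves. The result is expressed as % of the median of DMSO wells. Two biological replicates.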

[1] = sgRNA knockout: sgATF3, 1000 nM
[2] = sgRNA knockout: sgATF4, 1000 nM
[3] = sgRNA knockout: sgATF6, 1000 nM
[4] = sgRNA knockout: sgATG7, 1000 nM
[5] = sgRNA knockout: sgERN1, 1000 nM
[6] = sgRNA knockout: sgHSF1, 1000 nM
[7] = sgRNA knockout: sgHSF2, 1000 nM
[8] = sgRNA knockout: sgKEAP1, 100 nM
[9] = sgRNA knockout: sgKEAP1, 1000 nM
[10] = sgRNA knockout: sgNFE2L2, 10 nM
[11] = sgRNA knockout: sgNFE2L2, 100 nM
[12] = sgRNA knockout: sgNFE2L2, 1000 nM
[13] = sgRNA knockout: sgSLC35F2, 10 nM
[14] = sgRNA knockout: sgSLC35F2, 100 nM
[15] = sgRNA knockout: sgSLC35F2, 1000 nM
[16] = sgRNA knockout: sgXBP1, 1000 nM
[17] = sgRNA knockout: sgATF3, 10000 nM
[18] = sgRNA knockout: sgATF4, 10000 nM
[19] = sgRNA knockout: sgATF6, 10000 nM
[20] = sgRNA knockout: sgATG7, 10000 nM
[21] = sgRNA knockout: sgERN1, 10000 nM
[22] = sgRNA knockout: sgHSF1, 10000 nM
[23] = sgRNA knockout: sgHSF2, 10000 nM
[24] = sgRNA knockout: sgKEAP1, 10000 nM
[25] = sgRNA knockout: sgNFE2L2, 10000 nM
[26] = sgRNA knockout: sgSLC35F2, 10000 nM
[27] = sgRNA knockout: sgXBP1, 10000 nM

Structure (SMILES): CC(C)C[C@H](NC(=O)[C@H](Cc1ccccc1)NC(=O)c1cnccn1)B(O)O [Bortezomib]
- relative cell number (sgRNA knockout: sgATF3, 1 nM): 96.8 ± 3.8
- relative cell number (sgRNA knockout: sgATF3, 10 nM): 83.8 ± 26
- relative cell number (sgRNA knockout: sgATF3, 100 nM): 23 ± 2.2
- relative cell number [1]: 17.1 ± 2
- relative cell number (sgRNA knockout: sgATF4, 1 nM): 85.8 ± 6.9
- relative cell number (sgRNA knockout: sgATF4, 10 nM): 88.7 ± 2.1
- relative cell number (sgRNA knockout: sgATF4, 100 nM): 20.3 ± 2.4
- relative cell number [2]: 22.3 ± 2.6
- relative cell number (sgRNA knockout: sgATF6, 1 nM): 98.8 ± 13
- relative cell number (sgRNA knockout: sgATF6, 10 nM): 87.1 ± 11
- relative cell number (sgRNA knockout: sgATF6, 100 nM): 23.4 ± 2.2
- relative cell number [3]: 20.2 ± 2.1
- relative cell number (sgRNA knockout: sgATG7, 1 nM): 88.23 ± 0.12
- relative cell number (sgRNA knockout: sgATG7, 10 nM): 83.4 ± 0.87
- relative cell number (sgRNA knockout: sgATG7, 100 nM): 18.5 ± 9
- relative cell number [4]: 24.2 ± 8.1
- relative cell number (sgRNA knockout: sgERN1, 1 nM): 96.6 ± 7.1
- relative cell number (sgRNA knockout: sgERN1, 10 nM): 88.3 ± 4.7
- relative cell number (sgRNA knockout: sgERN1, 100 nM): 20.4 ± 11
- relative cell number [5]: 19 ± 6.5
- relative cell number (sgRNA knockout: sgHSF1, 1 nM): 84.4 ± 8
- relative cell number (sgRNA knockout: sgHSF1, 10 nM): 97.2 ± 20
- relative cell number (sgRNA knockout: sgHSF1, 100 nM): 19.9 ± 12
- relative cell number [6]: 18.7 ± 3
- relative cell number (sgRNA knockout: sgHSF2, 1 nM): 98.1 ± 8.6
- relative cell number (sgRNA knockout: sgHSF2, 10 nM): 75.2 ± 13
- relative cell number (sgRNA knockout: sgHSF2, 100 nM): 21.2 ± 4.2
- relative cell number [7]: 24.1 ± 8.3
- relative cell number (sgRNA knockout: sgKEAP1, 1 nM): 92.6 ± 6
- relative cell number (sgRNA knockout: sgKEAP1, 10 nM): 89.6 ± 17
- relative cell number [8]: 22.3 ± 10
- relative cell number [9]: 20.4 ± 1.5
- relative cell number (sgRNA knockout: sgNFE2L2, 1 nM): 77.1 ± 4.8
- relative cell number [10]: 81.4 ± 7.1
- relative cell number [11]: 20.3 ± 3.3
- relative cell number [12]: 16.8 ± 15
- relative cell number (sgRNA knockout: sgSLC35F2, 1 nM): 93.8 ± 12
- relative cell number [13]: 79 ± 12
- relative cell number [14]: 18 ± 5.5
- relative cell number [15]: 22.2 ± 3.9
- relative cell number (sgRNA knockout: sgXBP1, 1 nM): 93.4 ± 5.2
- relative cell number (sgRNA knockout: sgXBP1, 10 nM): 91.7 ± 23
- relative cell number (sgRNA knockout: sgXBP1, 100 nM): 19 ± 0.93
- relative cell number [16]: 21.8 ± 3.5

Structure (SMILES): CC(C)(C)OC(=O)CN(Cc1ccc(Cl)cc1)Cc1ccc([N+](=O)[O-])s1 [GSK4112]
- relative cell number (sgRNA knockout: sgATF3, 10 nM): 85.2 ± 9.2
- relative cell number (sgRNA knockout: sgATF3, 100 nM): 108.8 ± 0.68
- relative cell number [1]: 96.3 ± 3.4
- relative cell number [17]: 105 ± 22
- relative cell number (sgRNA knockout: sgATF4, 10 nM): 83.2 ± 6.8
- relative cell number (sgRNA knockout: sgATF4, 100 nM): 118 ± 16
- relative cell number [2]: 104 ± 24
- relative cell number [18]: 105 ± 6.7
- relative cell number (sgRNA knockout: sgATF6, 10 nM): 88.2 ± 2.9
- relative cell number (sgRNA knockout: sgATF6, 100 nM): 106 ± 5.8
- relative cell number [3]: 92.3 ± 14
- relative cell number [19]: 95.6 ± 27
- relative cell number (sgRNA knockout: sgATG7, 10 nM): 82.2 ± 6.8
- relative cell number (sgRNA knockout: sgATG7, 100 nM): 114 ± 13
- relative cell number [4]: 106.8 ± 0.031
- relative cell number [20]: 104 ± 15
- relative cell number (sgRNA knockout: sgERN1, 10 nM): 84.2 ± 1.3
- relative cell number (sgRNA knockout: sgERN1, 100 nM): 101 ± 14
- relative cell number [5]: 102 ± 3.9
- relative cell number [21]: 97.1 ± 20
- relative cell number (sgRNA knockout: sgHSF1, 10 nM): 99.1 ± 2.5
- relative cell number (sgRNA knockout: sgHSF1, 100 nM): 95.4 ± 5.4
- relative cell number [6]: 93.39 ± 0.13
- relative cell number [22]: 96.5 ± 13
- relative cell number (sgRNA knockout: sgHSF2, 10 nM): 94.7 ± 2.3
- relative cell number (sgRNA knockout: sgHSF2, 100 nM): 110 ± 10
- relative cell number [7]: 98 ± 1.2
- relative cell number [23]: 116 ± 11
- relative cell number (sgRNA knockout: sgKEAP1, 10 nM): 84 ± 1.9
- relative cell number [8]: 100 ± 6.2
- relative cell number [9]: 94.3 ± 8.3
- relative cell number [24]: 94.9 ± 17
- relative cell number [10]: 100 ± 1.6
- relative cell number [11]: 133 ± 18
- relative cell number [12]: 90.3 ± 25
- relative cell number [25]: 109 ± 32
- relative cell number [13]: 95.8 ± 9.2
- relative cell number [14]: 105 ± 7.3
- relative cell number [15]: 91.5 ± 11
- relative cell number [26]: 107 ± 38
- relative cell number (sgRNA knockout: sgXBP1, 10 nM): 88.1 ± 6.4
- relative cell number (sgRNA knockout: sgXBP1, 100 nM): 116 ± 5.8
- relative cell number [16]: 88.8 ± 13
- relative cell number [27]: 111 ± 30

Structure (SMILES): C[C@]1(O)C[C@@H](c2nc(-c3ccc4ccc(-c5ccccc5)nc4c3)c3c(N)nccn32)C1 [Linsitinib]
- relative cell number (sgRNA knockout: sgATF3, 10 nM): 97.3 ± 2.6
- relative cell number (sgRNA knockout: sgATF3, 100 nM): 97.7 ± 4.6
- relative cell number [1]: 104 ± 8.8
- relative cell number [17]: 92.4 ± 9.5
- relative cell number (sgRNA knockout: sgATF4, 10 nM): 103 ± 11
- relative cell number (sgRNA knockout: sgATF4, 100 nM): 110 ± 2
- relative cell number [2]: 88.7 ± 1.7
- relative cell number [18]: 108 ± 12
- relative cell number (sgRNA knockout: sgATF6, 10 nM): 90.3 ± 7.8
- relative cell number (sgRNA knockout: sgATF6, 100 nM): 99.4 ± 2.1
- relative cell number [3]: 96.4 ± 9.9
- relative cell number [19]: 93.7 ± 1.2
- relative cell number (sgRNA knockout: sgATG7, 10 nM): 97.81 ± 0.64
- relative cell number (sgRNA knockout: sgATG7, 100 nM): 105 ± 3.9
- relative cell number [4]: 97.7 ± 14
- relative cell number [20]: 92.5 ± 3.1
- relative cell number (sgRNA knockout: sgERN1, 10 nM): 89.5 ± 1.6
- relative cell number (sgRNA knockout: sgERN1, 100 nM): 92.2 ± 7.9
- relative cell number [5]: 98.6 ± 4.7
- relative cell number [21]: 97.8 ± 7.1
- relative cell number (sgRNA knockout: sgHSF1, 10 nM): 93.1 ± 7.8
- relative cell number (sgRNA knockout: sgHSF1, 100 nM): 104 ± 10
- relative cell number [6]: 86.6 ± 16
- relative cell number [22]: 95.2 ± 4.3
- relative cell number (sgRNA knockout: sgHSF2, 10 nM): 85.1 ± 12
- relative cell number (sgRNA knockout: sgHSF2, 100 nM): 96.4 ± 7.7
- relative cell number [7]: 112 ± 3
- relative cell number [23]: 105 ± 1.5
- relative cell number (sgRNA knockout: sgKEAP1, 10 nM): 88.6 ± 19
- relative cell number [8]: 101 ± 3.6
- relative cell number [9]: 89 ± 5
- relative cell number [24]: 85.4 ± 8.2
- relative cell number [10]: 106 ± 12
- relative cell number [11]: 120 ± 20
- relative cell number [12]: 99 ± 5.4
- relative cell number [25]: 110 ± 7.9
- relative cell number [13]: 94.1 ± 16
- relative cell number [14]: 97.2 ± 2.7
- relative cell number [15]: 95.7 ± 6
- relative cell number [26]: 87.4 ± 14
- relative cell number (sgRNA knockout: sgXBP1, 10 nM): 109 ± 6.7
- relative cell number (sgRNA knockout: sgXBP1, 100 nM): 106 ± 5
- relative cell number [16]: 94.5 ± 4.8
- relative cell number [27]: 97.5 ± 5.7
